According to patent US20180028471A1, “CONTINUOUS LOCAL SLOW-RELEASE OF THERAPEUTICS FOR HEAD AND NECK PROBLEMS AND UPPER AERODIGESTIVE DISORDERS” (Board of Supervisors of Louisiana State University and …, priority 2016, published 2018):
At least one structure is not confirmed: it was looked up by name or label, or the drawing left a doubt.

Tested on: HNSCC cell lines
Assay: Inhibition of cell proliferation in HNSCC cell lines
Type: cell-based
Text: While curcumin can be used to treat these cancers, other compounds that act on these pathways may also be useful in treating these cancers and it should be readily recognized that such compounds could also be delivered by including in the formulations described herein.

CO[C@H]1C[C@@H]2CC[C@@H](C)[C@@](O)(O2)C(=O)C(=O)N2CCCC[C@H]2C(=O)O[C@H]([C@H](C)C[C@@H]2CC[C@@H](O)[C@H](OC)C2)CC(=O)[C@H](C)/C=C(\C)[C@@H](O)[C@@H](OC)C(=O)[C@H](C)C[C@H](C)/C=C/C=C/C=C/1C [rapamycin, reference compound]
sensitivity of a variety of cell lines: wide range of sensitivity
